Among the data in publication PMC8421267 are binding values, retold here.

The chains behind the UniProt entries cited, without tags or fusion partners.
UniProt Q9H4A5: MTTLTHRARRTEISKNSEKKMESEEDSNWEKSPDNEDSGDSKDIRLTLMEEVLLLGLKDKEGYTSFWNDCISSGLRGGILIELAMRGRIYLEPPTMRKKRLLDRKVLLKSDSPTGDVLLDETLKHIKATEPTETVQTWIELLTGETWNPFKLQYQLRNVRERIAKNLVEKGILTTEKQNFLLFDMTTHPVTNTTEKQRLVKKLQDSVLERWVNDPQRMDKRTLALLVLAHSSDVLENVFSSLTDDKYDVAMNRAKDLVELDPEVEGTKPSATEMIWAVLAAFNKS
UniProt Q9H4A6: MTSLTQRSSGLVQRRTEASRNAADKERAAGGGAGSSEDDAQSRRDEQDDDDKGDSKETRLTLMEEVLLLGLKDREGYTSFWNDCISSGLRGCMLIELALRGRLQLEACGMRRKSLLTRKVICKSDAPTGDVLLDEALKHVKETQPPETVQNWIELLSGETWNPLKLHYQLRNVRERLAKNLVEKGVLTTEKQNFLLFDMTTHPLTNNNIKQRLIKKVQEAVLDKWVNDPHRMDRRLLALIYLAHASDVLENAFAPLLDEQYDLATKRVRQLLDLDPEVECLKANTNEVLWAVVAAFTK
UniProt P53618: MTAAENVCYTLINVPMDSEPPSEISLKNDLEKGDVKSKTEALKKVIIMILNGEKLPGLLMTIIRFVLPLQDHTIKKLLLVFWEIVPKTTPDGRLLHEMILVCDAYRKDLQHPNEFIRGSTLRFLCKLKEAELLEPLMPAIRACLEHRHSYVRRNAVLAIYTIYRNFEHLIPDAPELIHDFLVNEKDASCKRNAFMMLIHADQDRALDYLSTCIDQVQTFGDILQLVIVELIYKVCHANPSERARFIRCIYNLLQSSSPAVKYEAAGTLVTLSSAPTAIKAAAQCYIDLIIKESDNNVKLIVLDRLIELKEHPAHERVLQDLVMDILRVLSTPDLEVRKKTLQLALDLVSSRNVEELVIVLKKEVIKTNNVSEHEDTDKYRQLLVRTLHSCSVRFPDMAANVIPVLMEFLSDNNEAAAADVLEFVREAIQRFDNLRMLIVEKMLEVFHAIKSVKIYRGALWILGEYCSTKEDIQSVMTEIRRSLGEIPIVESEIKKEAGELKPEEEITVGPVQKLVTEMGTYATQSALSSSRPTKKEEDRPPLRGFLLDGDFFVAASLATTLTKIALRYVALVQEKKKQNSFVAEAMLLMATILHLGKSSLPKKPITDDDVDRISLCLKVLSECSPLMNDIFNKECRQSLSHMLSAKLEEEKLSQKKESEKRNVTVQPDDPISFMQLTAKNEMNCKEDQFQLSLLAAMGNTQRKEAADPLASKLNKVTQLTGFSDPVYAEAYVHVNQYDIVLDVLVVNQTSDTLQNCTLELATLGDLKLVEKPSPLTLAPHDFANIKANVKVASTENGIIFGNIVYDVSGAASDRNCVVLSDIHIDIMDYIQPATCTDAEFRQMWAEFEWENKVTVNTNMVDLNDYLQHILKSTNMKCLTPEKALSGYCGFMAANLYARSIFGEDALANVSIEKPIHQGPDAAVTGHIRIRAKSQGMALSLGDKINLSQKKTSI

Results are given in words; binding and its absence hold for the method and conditions named. Binding seen in cells or lysates may run through a third protein. Some entries that bind do so weakly or less than the wild type.

One experiment has as its target GST-GOLPH3L (UniProt Q9H4A5). The experiment in a line: pull-down; GST pull-downs from 293T cell lysate as for the mass spectrometry (GST-GOLPH3, GST-GOLPH3L or GST alone on glutathione beads), read by immunoblot; only the target purified. (In general: Immunoblotting shows a protein as a band on a membrane.)
Another experiment deals with GST-GOLPH3 (UniProt Q9H4A6). The description is as above.

On to β-COP (from UniProt P53618 1-953), for which the binding entry with GST-GOLPH3L and with GST-GOLPH3 was “binds” throughout.
